Where no unit stands, none is given here, and values compare only within one read-out.
Experiment: Emission and excitation spectra of purified LHGFR with or without 100 μM L-2-HG
Type: binding

O=C(O)CC[C@H](O)C(=O)O [L-2-HG, L-2-Hydroxyglutarate]
Fluorescence intensity, excitation spectrum (excitation 428 nm, Suppl. Fig. 8c): 376961 | Fluorescence intensity, excitation spectrum (excitation 428 nm, Suppl. Fig. 8d): 416622 | Fluorescence intensity, excitation spectrum (excitation 430 nm, Suppl. Fig. 8c): 403300 | Fluorescence intensity, excitation spectrum (excitation 430 nm, Suppl. Fig. 8d): 446658 | Fluorescence intensity, excitation spectrum (excitation 432 nm, Suppl. Fig. 8c): 442942 | Fluorescence intensity, excitation spectrum (excitation 432 nm, Suppl. Fig. 8d): 490401 | Fluorescence intensity, excitation spectrum (excitation 434 nm, Suppl. Fig. 8c): 513298 | Fluorescence intensity, excitation spectrum (excitation 434 nm, Suppl. Fig. 8d): 570170 | Fluorescence intensity, excitation spectrum (excitation 436 nm, Suppl. Fig. 8c): 600225 | Fluorescence intensity, excitation spectrum (excitation 436 nm, Suppl. Fig. 8d): 660880 | Fluorescence intensity, excitation spectrum (excitation 438 nm, Suppl. Fig. 8c): 633266 | Fluorescence intensity, excitation spectrum (excitation 438 nm, Suppl. Fig. 8d): 710516 | Fluorescence intensity, excitation spectrum (excitation 440 nm, Suppl. Fig. 8c): 672221 | Fluorescence intensity, excitation spectrum (excitation 440 nm, Suppl. Fig. 8d): 753426 | Fluorescence intensity, excitation spectrum (excitation 442 nm, Suppl. Fig. 8c): 701301 | Fluorescence intensity, excitation spectrum (excitation 442 nm, Suppl. Fig. 8d): 781102 | Fluorescence intensity, excitation spectrum (excitation 444 nm, Suppl. Fig. 8c): 726084 | Fluorescence intensity, excitation spectrum (excitation 444 nm, Suppl. Fig. 8d): 808990 | Fluorescence intensity, excitation spectrum (excitation 446 nm, Suppl. Fig. 8c): 762067 | Fluorescence intensity, excitation spectrum (excitation 446 nm, Suppl. Fig. 8d): 846079 | Fluorescence intensity, excitation spectrum (excitation 448 nm, Suppl. Fig. 8c): 782118 | Fluorescence intensity, excitation spectrum (excitation 448 nm, Suppl. Fig. 8d): 873313 | Fluorescence intensity, excitation spectrum (excitation 450 nm, Suppl. Fig. 8c): 817397 | Fluorescence intensity, excitation spectrum (excitation 450 nm, Suppl. Fig. 8d): 910254 | Fluorescence intensity, excitation spectrum (excitation 452 nm, Suppl. Fig. 8c): 841311 | Fluorescence intensity, excitation spectrum (excitation 452 nm, Suppl. Fig. 8d): 939648 | Fluorescence intensity, excitation spectrum (excitation 454 nm, Suppl. Fig. 8c): 869053 | Fluorescence intensity, excitation spectrum (excitation 454 nm, Suppl. Fig. 8d): 969090 | Fluorescence intensity, excitation spectrum (excitation 456 nm, Suppl. Fig. 8c): 933158 | Fluorescence intensity, excitation spectrum (excitation 456 nm, Suppl. Fig. 8d): 1.05E+06 | Fluorescence intensity, excitation spectrum (excitation 458 nm, Suppl. Fig. 8c): 1.00E+06 | Fluorescence intensity, excitation spectrum (excitation 458 nm, Suppl. Fig. 8d): 1.13E+06 | Fluorescence intensity, excitation spectrum (excitation 460 nm, Suppl. Fig. 8c): 1.08E+06 | Fluorescence intensity, excitation spectrum (excitation 460 nm, Suppl. Fig. 8d): 1.21E+06 | Fluorescence intensity, excitation spectrum (excitation 462 nm, Suppl. Fig. 8c): 1.11E+06 | Fluorescence intensity, excitation spectrum (excitation 462 nm, Suppl. Fig. 8d): 1.25E+06 | Fluorescence intensity, excitation spectrum (excitation 464 nm, Suppl. Fig. 8c): 1.16E+06 | Fluorescence intensity, excitation spectrum (excitation 464 nm, Suppl. Fig. 8d): 1.30E+06 | Fluorescence intensity, excitation spectrum (excitation 466 nm, Suppl. Fig. 8c): 1.19E+06 | Fluorescence intensity, excitation spectrum (excitation 466 nm, Suppl. Fig. 8d): 1.34E+06 | Fluorescence intensity, excitation spectrum (excitation 468 nm, Suppl. Fig. 8c): 1.23E+06 | Fluorescence intensity, excitation spectrum (excitation 468 nm, Suppl. Fig. 8d): 1.40E+06 | Fluorescence intensity, excitation spectrum (excitation 470 nm, Suppl. Fig. 8c): 1.28E+06 | Fluorescence intensity, excitation spectrum (excitation 470 nm, Suppl. Fig. 8d): 1.45E+06 | Fluorescence intensity, excitation spectrum (excitation 472 nm, Suppl. Fig. 8c): 1.32E+06 | Fluorescence intensity, excitation spectrum (excitation 472 nm, Suppl. Fig. 8d): 1.50E+06 | Fluorescence intensity, excitation spectrum (excitation 474 nm, Suppl. Fig. 8c): 1.38E+06 | Fluorescence intensity, excitation spectrum (excitation 474 nm, Suppl. Fig. 8d): 1.56E+06 | Fluorescence intensity, excitation spectrum (excitation 476 nm, Suppl. Fig. 8c): 1.43E+06 | Fluorescence intensity, excitation spectrum (excitation 476 nm, Suppl. Fig. 8d): 1.63E+06 | Fluorescence intensity, excitation spectrum (excitation 478 nm, Suppl. Fig. 8c): 1.52E+06 | Fluorescence intensity, excitation spectrum (excitation 478 nm, Suppl. Fig. 8d): 1.73E+06 | Fluorescence intensity, excitation spectrum (excitation 480 nm, Suppl. Fig. 8c): 1.62E+06 | Fluorescence intensity, excitation spectrum (excitation 480 nm, Suppl. Fig. 8d): 1.86E+06 | Fluorescence intensity, excitation spectrum (excitation 482 nm, Suppl. Fig. 8c): 1.71E+06 | Fluorescence intensity, excitation spectrum (excitation 482 nm, Suppl. Fig. 8d): 1.97E+06 | Fluorescence intensity, excitation spectrum (excitation 484 nm, Suppl. Fig. 8c): 1.69E+06 | Fluorescence intensity, excitation spectrum (excitation 484 nm, Suppl. Fig. 8d): 1.95E+06 | Fluorescence intensity, excitation spectrum (excitation 486 nm, Suppl. Fig. 8c): 1.66E+06 | Fluorescence intensity, excitation spectrum (excitation 486 nm, Suppl. Fig. 8d): 1.93E+06 | Fluorescence intensity, excitation spectrum (excitation 488 nm, Suppl. Fig. 8c): 1.65E+06 | Fluorescence intensity, excitation spectrum (excitation 488 nm, Suppl. Fig. 8d): 1.91E+06 | Fluorescence intensity, excitation spectrum (excitation 490 nm, Suppl. Fig. 8c): 1.64E+06 | Fluorescence intensity, excitation spectrum (excitation 490 nm, Suppl. Fig. 8d): 1.91E+06 | Fluorescence intensity, excitation spectrum (excitation 492 nm, Suppl. Fig. 8c): 1.62E+06 | Fluorescence intensity, excitation spectrum (excitation 492 nm, Suppl. Fig. 8d): 1.91E+06 | Fluorescence intensity, excitation spectrum (excitation 494 nm, Suppl. Fig. 8c): 1.64E+06 | Fluorescence intensity, excitation spectrum (excitation 494 nm, Suppl. Fig. 8d): 1.91E+06 | Fluorescence intensity, excitation spectrum (excitation 496 nm, Suppl. Fig. 8c): 1.66E+06 | Fluorescence intensity, excitation spectrum (excitation 496 nm, Suppl. Fig. 8d): 1.94E+06 | Fluorescence intensity, excitation spectrum (excitation 498 nm, Suppl. Fig. 8c): 1.69E+06 | Fluorescence intensity, excitation spectrum (excitation 498 nm, Suppl. Fig. 8d): 1.98E+06 | Fluorescence intensity, excitation spectrum (excitation 500 nm, Suppl. Fig. 8c): 1.76E+06 | Fluorescence intensity, excitation spectrum (excitation 500 nm, Suppl. Fig. 8d): 2.08E+06 | Fluorescence intensity, excitation spectrum (excitation 502 nm, Suppl. Fig. 8c): 1.91E+06 | Fluorescence intensity, excitation spectrum (excitation 502 nm, Suppl. Fig. 8d): 2.25E+06 | Fluorescence intensity, excitation spectrum (excitation 504 nm, Suppl. Fig. 8c): 2.34E+06 | Fluorescence intensity, excitation spectrum (excitation 504 nm, Suppl. Fig. 8d): 2.76E+06 | Fluorescence intensity, excitation spectrum (excitation 506 nm, Suppl. Fig. 8c): 2.84E+06 | Fluorescence intensity, excitation spectrum (excitation 506 nm, Suppl. Fig. 8d): 3.35E+06 | Fluorescence intensity, excitation spectrum (excitation 508 nm, Suppl. Fig. 8c): 3.24E+06 | Fluorescence intensity, excitation spectrum (excitation 508 nm, Suppl. Fig. 8d): 3.78E+06 | Fluorescence intensity, excitation spectrum (excitation 510 nm, Suppl. Fig. 8c): 3.46E+06 | Fluorescence intensity, excitation spectrum (excitation 510 nm, Suppl. Fig. 8d): 4.04E+06 | Fluorescence intensity, excitation spectrum (excitation 512 nm, Suppl. Fig. 8c): 3.68E+06 | Fluorescence intensity, excitation spectrum (excitation 512 nm, Suppl. Fig. 8d): 4.26E+06 | Fluorescence intensity, excitation spectrum (excitation 514 nm, Suppl. Fig. 8c): 3.82E+06 | Fluorescence intensity, excitation spectrum (excitation 514 nm, Suppl. Fig. 8d): 4.43E+06 | Fluorescence intensity, excitation spectrum (excitation 516 nm, Suppl. Fig. 8c): 3.88E+06 | Fluorescence intensity, excitation spectrum (excitation 516 nm, Suppl. Fig. 8d): 4.49E+06 | Fluorescence intensity, excitation spectrum (excitation 518 nm, Suppl. Fig. 8c): 3.87E+06 | Fluorescence intensity, excitation spectrum (excitation 518 nm, Suppl. Fig. 8d): 4.49E+06 | Fluorescence intensity, excitation spectrum (excitation 520 nm, Suppl. Fig. 8c): 3.79E+06 | Fluorescence intensity, excitation spectrum (excitation 520 nm, Suppl. Fig. 8d): 4.40E+06 | Fluorescence intensity, excitation spectrum (excitation 522 nm, Suppl. Fig. 8c): 3.58E+06 | Fluorescence intensity, excitation spectrum (excitation 522 nm, Suppl. Fig. 8d): 4.15E+06 | Fluorescence intensity, excitation spectrum (excitation 524 nm, Suppl. Fig. 8c): 3.08E+06 | Fluorescence intensity, excitation spectrum (excitation 524 nm, Suppl. Fig. 8d): 3.57E+06 | Fluorescence intensity, excitation spectrum (excitation 526 nm, Suppl. Fig. 8c): 2.23E+06 | Fluorescence intensity, excitation spectrum (excitation 526 nm, Suppl. Fig. 8d): 2.59E+06 | Fluorescence intensity, excitation spectrum (excitation 528 nm, Suppl. Fig. 8c): 1.32E+06 | Fluorescence intensity, excitation spectrum (excitation 528 nm, Suppl. Fig. 8d): 1.53E+06 | Fluorescence intensity, excitation spectrum (excitation 530 nm, Suppl. Fig. 8c): 864935 | Fluorescence intensity, excitation spectrum (excitation 530 nm, Suppl. Fig. 8d): 1.02E+06 | Fluorescence intensity, excitation spectrum (excitation 532 nm, Suppl. Fig. 8c): 614350 | Fluorescence intensity, excitation spectrum (excitation 532 nm, Suppl. Fig. 8d): 720704 | Fluorescence intensity, excitation spectrum (excitation 534 nm, Suppl. Fig. 8c): 457258 | Fluorescence intensity, excitation spectrum (excitation 534 nm, Suppl. Fig. 8d): 537252

Reference: publication PMC8206213, “An L-2-hydroxyglutarate biosensor based on specific transcriptional regulator LhgR” (Nature Communications, 2021)
